# Values quoted from earlier work, collected in patent publication US9315806B2, “Massively parallel combinatorial genetics” (Massachusetts Institute of Technology, priority 2012, dated 2016).
# At least one structure is not confirmed: it was looked up by name or label, or the drawing left a doubt.
# Tested on: Klebsiella pneumoniae NDM-1 clinical isolate
# Conditions: original Klebsiella pneumoniae NDM-1 isolate; cited from earlier work
structure (smiles),measurement,value
C[C@@H](O)[C@H]1C(=O)N2C(C(=O)O)=C(SCCN=CN)C[C@H]12 [Imipenem],"NDM-1 MICs, Previously Reported",8 µg/mL
